The text below walks through data of article PMC9239255, “Switching off Bacterial Flagellar Biogenesis by YdiU-Mediated UMPylation of FlhDC”.

Assay [1] deals with T1, FlhC T86A (E. coli strain K-12 substrain MG1655) (UniProt P0ABY7).
T1 sequence: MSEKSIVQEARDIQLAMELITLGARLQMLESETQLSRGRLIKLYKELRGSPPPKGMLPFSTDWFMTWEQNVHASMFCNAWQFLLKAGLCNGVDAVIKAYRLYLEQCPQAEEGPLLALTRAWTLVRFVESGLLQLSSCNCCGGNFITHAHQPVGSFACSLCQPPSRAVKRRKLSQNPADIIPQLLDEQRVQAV
As to the kind of experiment: co-purification after co-expression; FlhD and mutated FlhC co-expressed from the flhDC coexpression construct (pET21b) in E. coli BL21(DE3) or BL21(DE3) ΔydiU; purified as in ref. 30.

Assay [2] concerns the target T2, FlhC T21A (E. coli strain K-12 substrain MG1655) (UniProt P0ABY7).
T2 sequence: T1 sequence with T21A, A86T
Described as above.

Numbering of substitutions follows the chain as printed. No constants are given. Whether binding was seen depends on the method and setting. Some entries that bind do so weakly or less than the wild type.

B1: FlhD (protein, UniProt P0A8S9 1-116)
chain: MHTSELLKHIYDINLSYLLLAQRLIVQDKASAMFRLGINEEMATTLAALTLPQMVKLAETNQLVCHFRFDSHQTITQLTQDSRVDDLQQIHTGIMLSTRLLNDVNQPEEALRKKRA
In the case of B1, the binding entry in assay [1] and in assay [2] was “binds” each time.
